Laboratory results taken from patent publication US20190040138A1.
No constants are given. Whether binding was seen depends on the method and setting. Some binding calls cover weakened binding; strength is not graded here.

Sequences of proteins named here, by UniProt entry; tags and fusion partners are left off. Residues count along the entry.
UniProt Q15116, residues 25-288: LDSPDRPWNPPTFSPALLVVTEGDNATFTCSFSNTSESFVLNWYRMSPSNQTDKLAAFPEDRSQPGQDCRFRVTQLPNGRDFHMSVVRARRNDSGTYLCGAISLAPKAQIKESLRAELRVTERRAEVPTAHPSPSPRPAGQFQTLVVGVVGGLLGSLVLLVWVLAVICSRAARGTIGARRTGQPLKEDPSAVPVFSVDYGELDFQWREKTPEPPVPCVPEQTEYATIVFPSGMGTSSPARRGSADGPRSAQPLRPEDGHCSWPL

Molecular target: PD-1 antigen stably expressed on the surface of BB007 cells (UniProt Q15116)
Assay: flow cytometry on BB007 cells

binding: binds
B1: humanized antibody 18A10 H3L3 (antibody, V domains shown)
VH: EVQLVQSGGGLVQPGGSLKLSCAASGFTFSSYGMSWVRQAPGKGLDWVATISGGGRDTYYPDSVKGRFTISRDNSKNTLYLQMNSLRAEDTAVYYCARQKGEAWFAYWGQGTLVTVSS
VL: DIVLTQSPASLAVSPGQRATITCRASESVDNYGISFMNWYQQKPGQPPKLLIYAASNKATGVPARFSGSGSGTDFTLNINPMEANDTAVYFCQQSKEVPWTFGGGTKLEIK
